Test results as given in the supplement of paper PMC11006884.
Only a part is listed here, and it is no random draw.

By UniProt entry, the sequences of proteins in these tests, tags left out. Where a name states a change or a piece, a line headed by the entry shows the natural chain unless it says otherwise.
UniProt P10768: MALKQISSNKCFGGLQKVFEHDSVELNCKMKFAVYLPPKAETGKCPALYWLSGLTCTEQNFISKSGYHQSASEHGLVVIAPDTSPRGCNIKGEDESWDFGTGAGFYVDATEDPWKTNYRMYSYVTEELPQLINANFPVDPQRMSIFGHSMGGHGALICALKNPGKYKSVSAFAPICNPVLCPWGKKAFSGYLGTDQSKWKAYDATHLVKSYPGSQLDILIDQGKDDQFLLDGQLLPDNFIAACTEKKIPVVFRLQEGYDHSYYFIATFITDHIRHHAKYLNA
UniProt P15927: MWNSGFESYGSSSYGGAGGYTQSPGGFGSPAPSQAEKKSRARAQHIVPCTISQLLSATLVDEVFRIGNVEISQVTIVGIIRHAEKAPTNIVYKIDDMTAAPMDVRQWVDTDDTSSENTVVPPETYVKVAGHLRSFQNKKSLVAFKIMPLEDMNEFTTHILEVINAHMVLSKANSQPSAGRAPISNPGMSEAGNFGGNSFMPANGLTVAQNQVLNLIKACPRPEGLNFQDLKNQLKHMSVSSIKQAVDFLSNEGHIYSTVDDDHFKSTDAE
UniProt P14618, whole entry, looked up: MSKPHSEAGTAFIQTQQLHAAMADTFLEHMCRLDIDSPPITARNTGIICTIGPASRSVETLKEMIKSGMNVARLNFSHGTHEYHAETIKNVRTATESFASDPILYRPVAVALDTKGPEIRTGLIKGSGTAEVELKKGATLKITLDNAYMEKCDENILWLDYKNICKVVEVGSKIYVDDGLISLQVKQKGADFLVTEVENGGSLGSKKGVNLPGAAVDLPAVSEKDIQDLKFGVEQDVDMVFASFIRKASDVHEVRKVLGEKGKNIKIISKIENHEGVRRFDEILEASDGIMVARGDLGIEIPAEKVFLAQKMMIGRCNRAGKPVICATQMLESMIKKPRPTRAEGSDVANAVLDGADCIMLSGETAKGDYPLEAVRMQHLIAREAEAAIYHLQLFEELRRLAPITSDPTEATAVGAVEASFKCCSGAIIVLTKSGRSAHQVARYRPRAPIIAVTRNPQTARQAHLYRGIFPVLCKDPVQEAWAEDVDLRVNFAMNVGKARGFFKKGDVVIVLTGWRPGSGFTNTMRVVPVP
UniProt P15104, whole entry: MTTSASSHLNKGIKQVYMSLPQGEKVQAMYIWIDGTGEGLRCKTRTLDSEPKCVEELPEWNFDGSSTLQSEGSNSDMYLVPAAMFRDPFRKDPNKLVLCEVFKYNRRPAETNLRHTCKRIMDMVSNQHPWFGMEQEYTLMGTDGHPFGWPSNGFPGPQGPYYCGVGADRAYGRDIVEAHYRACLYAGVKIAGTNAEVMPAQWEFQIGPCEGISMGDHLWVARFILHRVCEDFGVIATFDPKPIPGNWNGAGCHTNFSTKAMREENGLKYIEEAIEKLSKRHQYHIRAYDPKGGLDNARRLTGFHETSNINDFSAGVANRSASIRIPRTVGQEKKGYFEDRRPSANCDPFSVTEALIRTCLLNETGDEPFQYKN
UniProt P12004, whole entry, looked up: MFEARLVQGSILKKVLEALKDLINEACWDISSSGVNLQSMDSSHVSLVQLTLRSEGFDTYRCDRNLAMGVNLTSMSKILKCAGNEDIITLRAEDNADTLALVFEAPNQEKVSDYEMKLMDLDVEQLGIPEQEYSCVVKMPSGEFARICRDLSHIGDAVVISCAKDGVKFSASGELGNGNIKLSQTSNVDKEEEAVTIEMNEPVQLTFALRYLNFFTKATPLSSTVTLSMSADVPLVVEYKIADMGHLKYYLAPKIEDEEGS
UniProt P13489: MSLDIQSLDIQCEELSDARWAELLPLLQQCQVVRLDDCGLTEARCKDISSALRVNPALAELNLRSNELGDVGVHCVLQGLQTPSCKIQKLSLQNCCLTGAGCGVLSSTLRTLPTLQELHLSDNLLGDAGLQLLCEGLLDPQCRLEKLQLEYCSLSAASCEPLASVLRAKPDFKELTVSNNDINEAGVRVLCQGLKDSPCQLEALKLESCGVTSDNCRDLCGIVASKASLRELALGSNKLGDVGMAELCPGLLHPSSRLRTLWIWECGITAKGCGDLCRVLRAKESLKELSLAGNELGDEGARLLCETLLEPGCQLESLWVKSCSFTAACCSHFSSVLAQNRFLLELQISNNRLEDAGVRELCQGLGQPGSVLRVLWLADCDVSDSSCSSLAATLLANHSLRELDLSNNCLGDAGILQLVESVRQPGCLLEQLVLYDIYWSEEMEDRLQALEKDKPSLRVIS
UniProt P13797: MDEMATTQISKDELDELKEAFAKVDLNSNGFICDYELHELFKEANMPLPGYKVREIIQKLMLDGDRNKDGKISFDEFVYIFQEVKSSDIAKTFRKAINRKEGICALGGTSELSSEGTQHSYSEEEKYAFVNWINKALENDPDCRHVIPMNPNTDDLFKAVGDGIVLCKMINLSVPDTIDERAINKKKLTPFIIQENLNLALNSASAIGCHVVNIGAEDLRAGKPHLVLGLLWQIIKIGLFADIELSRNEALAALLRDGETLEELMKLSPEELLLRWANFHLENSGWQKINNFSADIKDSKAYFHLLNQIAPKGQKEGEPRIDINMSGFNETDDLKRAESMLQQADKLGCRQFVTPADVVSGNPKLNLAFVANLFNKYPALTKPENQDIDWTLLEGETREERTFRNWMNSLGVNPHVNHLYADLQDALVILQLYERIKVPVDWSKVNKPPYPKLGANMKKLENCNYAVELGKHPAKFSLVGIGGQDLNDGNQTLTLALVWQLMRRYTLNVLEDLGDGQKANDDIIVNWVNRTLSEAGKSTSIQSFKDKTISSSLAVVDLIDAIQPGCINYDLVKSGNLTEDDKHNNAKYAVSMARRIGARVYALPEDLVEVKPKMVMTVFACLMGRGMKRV
UniProt P10599: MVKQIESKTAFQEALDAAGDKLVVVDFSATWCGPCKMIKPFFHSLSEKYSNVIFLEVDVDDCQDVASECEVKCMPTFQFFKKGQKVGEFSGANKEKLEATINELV
UniProt P15924: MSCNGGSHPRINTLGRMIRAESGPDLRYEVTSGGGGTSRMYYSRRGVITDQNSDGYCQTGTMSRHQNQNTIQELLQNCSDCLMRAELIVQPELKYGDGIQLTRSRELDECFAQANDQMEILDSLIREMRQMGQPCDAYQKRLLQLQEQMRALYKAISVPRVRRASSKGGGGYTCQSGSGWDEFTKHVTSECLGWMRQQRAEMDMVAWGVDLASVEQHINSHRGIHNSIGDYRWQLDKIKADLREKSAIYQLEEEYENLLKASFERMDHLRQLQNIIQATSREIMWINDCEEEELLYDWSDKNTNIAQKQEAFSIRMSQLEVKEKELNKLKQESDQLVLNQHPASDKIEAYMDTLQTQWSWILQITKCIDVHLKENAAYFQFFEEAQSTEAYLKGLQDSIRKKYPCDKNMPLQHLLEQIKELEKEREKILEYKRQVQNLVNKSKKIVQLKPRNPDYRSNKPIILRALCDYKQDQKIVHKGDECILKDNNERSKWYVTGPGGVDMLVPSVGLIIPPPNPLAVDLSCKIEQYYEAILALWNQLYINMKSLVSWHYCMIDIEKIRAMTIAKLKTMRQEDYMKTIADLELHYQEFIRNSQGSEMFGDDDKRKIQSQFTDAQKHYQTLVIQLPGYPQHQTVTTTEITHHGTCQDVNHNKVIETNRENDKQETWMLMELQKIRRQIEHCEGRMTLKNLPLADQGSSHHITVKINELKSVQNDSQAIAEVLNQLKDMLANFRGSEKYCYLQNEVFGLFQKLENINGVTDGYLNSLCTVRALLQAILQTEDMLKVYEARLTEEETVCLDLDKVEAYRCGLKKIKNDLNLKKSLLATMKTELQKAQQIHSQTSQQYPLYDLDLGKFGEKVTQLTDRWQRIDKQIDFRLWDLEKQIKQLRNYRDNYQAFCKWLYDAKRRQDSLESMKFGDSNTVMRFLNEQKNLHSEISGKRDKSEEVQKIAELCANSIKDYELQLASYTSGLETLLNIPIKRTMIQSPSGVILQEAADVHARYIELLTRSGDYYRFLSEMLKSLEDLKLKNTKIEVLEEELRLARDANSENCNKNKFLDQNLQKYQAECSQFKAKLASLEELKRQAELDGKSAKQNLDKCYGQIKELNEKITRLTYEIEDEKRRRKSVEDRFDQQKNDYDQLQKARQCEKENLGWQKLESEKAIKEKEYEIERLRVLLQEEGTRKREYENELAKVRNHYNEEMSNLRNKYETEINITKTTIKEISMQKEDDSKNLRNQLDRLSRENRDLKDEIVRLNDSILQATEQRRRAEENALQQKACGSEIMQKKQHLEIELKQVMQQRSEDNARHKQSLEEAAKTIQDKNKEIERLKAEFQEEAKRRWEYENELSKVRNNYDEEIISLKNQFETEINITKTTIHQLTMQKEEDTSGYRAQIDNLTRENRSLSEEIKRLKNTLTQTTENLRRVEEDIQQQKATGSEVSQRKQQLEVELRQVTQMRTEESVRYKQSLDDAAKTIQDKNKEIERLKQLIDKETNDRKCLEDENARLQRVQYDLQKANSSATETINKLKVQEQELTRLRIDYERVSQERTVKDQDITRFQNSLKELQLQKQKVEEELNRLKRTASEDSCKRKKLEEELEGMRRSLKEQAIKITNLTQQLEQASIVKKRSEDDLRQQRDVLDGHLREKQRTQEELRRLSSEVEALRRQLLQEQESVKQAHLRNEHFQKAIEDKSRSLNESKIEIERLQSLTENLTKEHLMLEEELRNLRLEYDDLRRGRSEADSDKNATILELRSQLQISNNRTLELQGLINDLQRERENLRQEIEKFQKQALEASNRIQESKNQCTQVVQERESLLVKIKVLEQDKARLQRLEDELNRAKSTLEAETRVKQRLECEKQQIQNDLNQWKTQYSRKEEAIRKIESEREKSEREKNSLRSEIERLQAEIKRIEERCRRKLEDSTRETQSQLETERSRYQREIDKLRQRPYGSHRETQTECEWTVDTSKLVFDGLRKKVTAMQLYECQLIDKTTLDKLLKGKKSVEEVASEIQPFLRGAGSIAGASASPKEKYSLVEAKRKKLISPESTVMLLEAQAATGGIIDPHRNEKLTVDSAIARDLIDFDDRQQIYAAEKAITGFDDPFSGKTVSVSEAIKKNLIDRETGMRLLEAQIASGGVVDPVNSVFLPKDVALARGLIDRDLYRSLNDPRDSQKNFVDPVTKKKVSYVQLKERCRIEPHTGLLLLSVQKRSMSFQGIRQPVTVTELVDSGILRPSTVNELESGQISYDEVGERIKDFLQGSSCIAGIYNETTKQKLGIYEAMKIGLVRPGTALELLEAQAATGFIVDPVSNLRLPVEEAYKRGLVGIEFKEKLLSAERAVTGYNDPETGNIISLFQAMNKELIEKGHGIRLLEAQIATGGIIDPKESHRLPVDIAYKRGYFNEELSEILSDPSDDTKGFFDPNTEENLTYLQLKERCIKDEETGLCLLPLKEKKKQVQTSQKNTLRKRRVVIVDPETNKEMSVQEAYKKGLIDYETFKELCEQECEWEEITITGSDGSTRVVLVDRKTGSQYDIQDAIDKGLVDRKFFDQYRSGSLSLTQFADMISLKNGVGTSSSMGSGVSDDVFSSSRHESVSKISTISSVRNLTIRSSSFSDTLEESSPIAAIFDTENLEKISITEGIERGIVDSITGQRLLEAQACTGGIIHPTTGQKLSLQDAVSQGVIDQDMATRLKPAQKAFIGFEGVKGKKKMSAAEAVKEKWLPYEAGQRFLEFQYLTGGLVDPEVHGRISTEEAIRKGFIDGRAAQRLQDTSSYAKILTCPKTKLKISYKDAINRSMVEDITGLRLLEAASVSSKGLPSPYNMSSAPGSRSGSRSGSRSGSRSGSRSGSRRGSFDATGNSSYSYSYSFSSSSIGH
UniProt P09960: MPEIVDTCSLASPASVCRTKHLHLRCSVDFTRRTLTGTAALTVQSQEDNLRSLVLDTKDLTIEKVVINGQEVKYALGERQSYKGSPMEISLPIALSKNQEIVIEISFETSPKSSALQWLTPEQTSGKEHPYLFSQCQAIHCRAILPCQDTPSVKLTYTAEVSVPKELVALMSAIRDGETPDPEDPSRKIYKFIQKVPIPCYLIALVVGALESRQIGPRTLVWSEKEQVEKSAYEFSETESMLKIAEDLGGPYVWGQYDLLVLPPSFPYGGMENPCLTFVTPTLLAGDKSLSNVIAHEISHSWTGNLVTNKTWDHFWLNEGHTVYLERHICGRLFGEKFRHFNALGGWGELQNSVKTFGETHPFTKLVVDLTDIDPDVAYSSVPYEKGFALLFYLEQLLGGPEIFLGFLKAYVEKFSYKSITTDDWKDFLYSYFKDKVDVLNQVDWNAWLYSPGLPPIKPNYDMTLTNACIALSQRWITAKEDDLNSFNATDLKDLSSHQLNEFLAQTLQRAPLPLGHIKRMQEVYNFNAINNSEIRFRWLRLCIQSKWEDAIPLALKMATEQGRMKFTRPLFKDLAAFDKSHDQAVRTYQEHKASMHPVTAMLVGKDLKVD

The targets below were run with COC(=O)C#Cc1ccccc1 [methyl 3-phenylpropiolate] (assay: log2 ratio of iodoacetamide-alkyne labeling of the cysteine site, DMSO over compound (competition); higher = stronger covalent engagement of the cysteine by the compound, active = 1 or more). Details: 500 µM; treatment time 1 h; system: HEK293T cell lysate.
Method in brief: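 HEK293T lysate (2 mg/mL) was treated with DMSO or electrophile (500 µM, 1 h, ambient temperature), then iodoacetamide alkyne (1 h), clicked to sCIP-TMT reagents, pooled, trypsin-digested overnight at 37 °C, streptavidin-enriched and acid-eluted. Peptides were run on Orbitrap Eclipse LC-MS/MS with FAIMS and quantified in FragPipe. The log2 competition ratio per cysteine is mean control-channel over mean compound-channel reporter intensity. Duplicate channels and three replicates were used, and cysteines quantified in only one replicate were excluded.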

| Target | log2 ratio of iodoacetamide-alkyne labeling |
| --- | --- |
| IMPDH2 C339 (UniProt P12268) | inactive: 0.563 |
| GSTP1 C102 (UniProt P09211) | inactive: -0.0685 |
| ESD C181 (UniProt P10768) | inactive: 0.0307 |
| ACTN1 C370 (UniProt P12814) | inactive: 0.00377 |
| RPA2 C219 (UniProt P15927) | inactive: 0.0715 |
| UniProt P14618_C474 | inactive: 0.222 |
| GLUL C359 (UniProt P15104) | inactive: 0.402 |
| PCNA C162 (UniProt P12004) | inactive: 0.16 |
| RNH1 C85 (UniProt P13489) | inactive: 0.0022 |
| UniProt P08240_C253 | inactive: 0.441 |
| LAMB1 C1785 (UniProt P07942) | inactive: 0.297 |
| CAPN2 C405 (UniProt P17655) | inactive: -0.0821 |
| ESD C56 (UniProt P10768) | inactive: -0.365 |
| PDIA4 C555 (UniProt P13667) | inactive: 0.315 |
| PLS3 C621 (UniProt P13797) | inactive: 0.0187 |
| TXN C35 (UniProt P10599) | active: 1.14 |
| TPR C1068 (UniProt P12270) | inactive: 0.136 |
| UniProt P17812_C218 | inactive: -0.193 |
| SLC25A6 C257 (UniProt P12236) | inactive: 0.26 |

| Target | log2 ratio of iodoacetamide-alkyne labeling |
| --- | --- |
| UniProt P14618_C358 | inactive: -0.0609 |
| DSP C57 (UniProt P15924) | inactive: 0.73 |
| Q95604 C188 (UniProt P10321) | inactive: 0.298 |
| LTA4H C8 (UniProt P09960) | inactive: 0.273 |
| IDE C966 (UniProt P14735) | inactive: 0.815 |
| U2AF1L5 C67 (UniProt P0DN76) | inactive: 0.366 |
| MTHFD1 C408 (UniProt P11586) | inactive: -0.04 |
| PDIA4 C209 (UniProt P13667) | inactive: 0.77 |
| UniProt P0DMV8_C574 | inactive: 0.492 |
| UniProt P17812_C176 | inactive: 0.03 |
| LTA4H C200 (UniProt P09960) | inactive: -0.0639 |
| PARP1 C24 (UniProt P09874) | inactive: 0.227 |
| DSP C1052 (UniProt P15924) | inactive: 0.439 |
| PCNA C135 (UniProt P12004) | inactive: 0.0259 |
| G6PD C446 (UniProt P11413) | inactive: -0.0338 |
| ADH5 C97 (UniProt P11766) | inactive: 0.0974 |
| PDHB C306 (UniProt P11177) | inactive: -0.122 |
| TXN C73 (UniProt P10599) | inactive: 0.114 |

Shown tab-delimited: entries from further up.
Target	log2 ratio of iodoacetamide-alkyne labeling
GSTP1 C102 (UniProt P09211)	inactive: -0.0685
ESD C181 (UniProt P10768)	inactive: 0.0307
UniProt P14618_C474	inactive: 0.222
PLS3 C621 (UniProt P13797)	inactive: 0.0187
LTA4H C8 (UniProt P09960)	inactive: 0.273
PCNA C135 (UniProt P12004)	inactive: 0.0259
ADH5 C97 (UniProt P11766)	inactive: 0.0974
